# From the supplement of paper PMC10331698
# ± gives the standard deviation of the averaged measurements. Most values lie at the level of the controls, where differences are scatter.
# Assays:
# Assay in all cases: level (log10 ratio to DMSO vehicle control); higher = higher biomarker level / cell amount than vehicle control
# [1] = compound: O=S(=O)(O)CCC(F)(F)C(F)(F)C(F)(F)C(F)(F)C(F)(F)C(F)(F)C(F)(F)C(F)(F)F [8:2 Fluorotelomer sulfonic acid]; details: in DMSO
# Procedure: (§1)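 BioMAP Diversity Plus panel of 12 human primary cell co-culture systems (3C, 4H, LPS, SAg, BT, BF4T, BE3C, CASM3C, HDF3CGF, KF3CT, MyoF, Mphg). Compounds were added 1 h before stimulation and left for 24 h (MyoF 48 h; BT 72 h for soluble read-outs or 6 d for IgG). Biomarkers were read by ELISA, cytotoxicity by SRB, PBMC viability and proliferation by Alamar Blue. Each well value was divided by the mean of 8 DMSO control wells on the same plate and log10 transformed; duplicate blinded samples were tested at 4 concentrations.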
# [2] = compound: CCCCCCCCC(F)(F)C(F)(F)C(F)(F)C(F)(F)C(F)(F)C(F)(F)F [1-(Perfluorohexyl)octane]; details: in DMSO
# Procedure: as §1
# [3] = compound: OCCC(F)(F)C(F)(F)C(F)(F)C(F)(F)C(F)(F)C(F)(F)F [6:2 Fluorotelomer alcohol]; details: 2200 nM; in DMSO
# Procedure: as §1
# [4] = compound: O=C(O)C(F)(F)C(F)(F)C(F)(F)OC(F)(F)F [Perfluoro(4-methoxybutanoic) acid]; details: 2200 nM; in DMSO
# Procedure: as §1
# [5] = compound: O=C(O)C(F)(F)C(F)(F)C(F)(F)C(F)(F)C(F)(F)C(F)(F)C(F)(F)C(F)(F)C(F)(F)C(F)F [11-H-Perfluoroundecanoic acid]; details: 2200 nM; in DMSO
# Procedure: as §1
# [6] = compound: CC(C)(C)C(=O)CC(=O)C(F)(F)C(F)(F)C(F)(F)F [(Heptafluorobutanoyl)pivaloylmethane]; details: 2200 nM; in DMSO
# Procedure: as §1
# [7] = compound: O=C(O)C(F)(F)C(F)(F)C(F)(F)C(F)(F)C(=O)O [Octafluoroadipic acid]; details: 2200 nM; in DMSO
# Procedure: as §1
# [8] = compound: O=C(O)C(F)(F)C(F)(F)C(F)(F)C(F)(F)C(F)(F)C(F)(F)F [Perfluoroheptanoic acid]; details: in DMSO
# Procedure: as §1
# [9] = compound: O=C(O)C(F)(F)C(F)(F)C(F)(F)C(F)(F)F [Perfluoropentanoic acid]; details: in DMSO
# Procedure: as §1
# [10] = compound: CCN(CCO)S(=O)(=O)C(F)(F)C(F)(F)C(F)(F)C(F)(F)C(F)(F)C(F)(F)C(F)(F)C(F)(F)F [N-Ethyl-N-(2-hydroxyethyl)perfluorooctanesulfonamide]; details: in DMSO
# Procedure: as §1
# [11] = compound: OCC(F)(F)C(F)(F)C(F)(F)F [1H,1H-Heptafluorobutanol]; details: 2200 nM; in DMSO
# Procedure: as §1
# [12] = compound: Cc1ccc(S(=O)(=O)OCC(F)(F)C(F)(F)C(F)(F)C(F)(F)C(F)(F)C(F)F)cc1 [1H,1H,7H-Perfluoroheptyl 4-methylbenzenesulfonate]; details: 2200 nM; in DMSO
# Procedure: as §1
# [13] = compound: NCC(F)(F)C(F)(F)C(F)(F)C(F)(F)C(F)(F)C(F)(F)C(F)(F)F [1H,1H-Perfluorooctylamine]; details: 2200 nM; in DMSO
# Procedure: as §1
# [14] = compound: NC(=O)C(F)(F)C(F)(F)C(F)(F)F [Heptafluorobutyramide]; details: 2200 nM; in DMSO
# Procedure: as §1
# [15] = compound: FC(F)(F)C(F)(F)C(F)(F)C(F)(F)C(F)(F)C(F)(F)CC1CO1 [3-(Perfluorohexyl)-1,2-epoxypropane]; details: 2200 nM; in DMSO
# Procedure: as §1
# [16] = compound: CN(C(=O)C(F)(F)C(F)(F)C(F)(F)F)[Si](C)(C)C [N-Methyl-N-trimethylsilylheptafluorobutyramide]; details: 2200 nM; in DMSO
# Procedure: as §1
Test System,level (log10) ([1]; 2200 nM),level (log10) ([1]; 6700 nM),level (log10) ([1]; 20000 nM),level (log10) ([1]; 60000 nM),level (log10) ([2]; 740 nM),level (log10) ([2]; 2200 nM),level (log10) [3],level (log10) [4],level (log10) [5],level (log10) [6],level (log10) [7],level (log10) ([8]; 2200 nM),level (log10) ([8]; 6700 nM),level (log10) ([8]; 20000 nM),level (log10) ([8]; 60000 nM),level (log10) ([9]; 2200 nM),level (log10) ([9]; 6700 nM),level (log10) ([9]; 20000 nM),level (log10) ([9]; 60000 nM),level (log10) ([10]; 2200 nM),level (log10) ([10]; 6700 nM),level (log10) ([10]; 20000 nM),level (log10) [11],level (log10) [12],level (log10) [13],level (log10) [14],level (log10) [15],level (log10) [16]
BF4T:CCL2/MCP-1,0.049 ± 0.058,0.037 ± 0.023,-0.019 ± 0.0028,-0.002 ± 0.034,0.0245 ± 0.043,0.0045 ± 0.016,0.0425 ± 0.037,0.0535 ± 0.1,-0.129 ± 0.056,0.0115 ± 0.016,0.0515 ± 0.005,0.048 ± 0.031,0.0155 ± 0.056,0.019 ± 0.067,0.0365 ± 0.12,-0.0165 ± 0.063,0.004 ± 0.047,-0.0035 ± 0.052,-0.0275 ± 0.025,0.0405 ± 0.025,-0.004 ± 0.013,-0.022 ± 0.0028,0.0205 ± 0.032,-0.003 ± 0.051,0.025 ± 0.078,0.037 ± 0.078,0.011 ± 0.082,0.032 ± 0.018
BF4T:CCL26/Eotaxin-3,0.001 ± 0.09,-0.0635 ± 0.05,-0.179 ± 0.05,-0.203 ± 0.0099,0.0225 ± 0.061,0.024 ± 0.055,-0.009 ± 0.15,0.0435 ± 0.05,-0.143 ± 0.042,0.028 ± 0.03,0.036 ± 0.014,0.0915 ± 0.039,0.0145 ± 0.019,-0.0055 ± 0.013,-0.031 ± 0.081,0.0055 ± 0.079,-0.0155 ± 0.029,-0.0165 ± 0.0092,0.018 ± 0.05,0.079 ± 0.03,0.0905 ± 0.029,0.141 ± 0.0028,0.044 ± 0.0057,0.0075 ± 0.083,0.0155 ± 0.09,0.023 ± 0.042,0.0185 ± 0.11,-0.004 ± 0.027
BF4T:CD54/ICAM-1,0.014 ± 0.013,-0.006 ± 0.0014,-0.0175 ± 0.00071,-0.0325 ± 0.013,-0.0105 ± 0.0078,-0.0115 ± 0.0064,0.0055 ± 0.023,0.0095 ± 0.035,-0.0505 ± 0.0078,0.0085 ± 0.0092,0.02 ± 0.0071,0.011 ± 0.024,-0.022 ± 0.0071,-0.011 ± 0.0085,0.004 ± 0.0071,-0.0065 ± 0.015,-0.0155 ± 0.0021,-0.0135 ± 0.005,0.0015 ± 0.043,0.0355 ± 0.0064,0.0495 ± 0.016,0.032 ± 0.0042,0.008 ± 0.0028,-0.003 ± 0.014,-0.0025 ± 0.016,0.0035 ± 0.037,0.0235 ± 0.0092,-0.014 ± 0.016
BF4T:CD90,-0.0045 ± 0.016,-0.008 ± 0.0028,-0.018 ± 0.0014,-0.0355 ± 0.0092,-0.0185 ± 0.00071,-0.0025 ± 0.021,-0.004 ± 0.023,0.0075 ± 0.019,-0.068 ± 0.013,0.0025 ± 0.0035,0.003 ± 0.014,0.006 ± 0.025,-0.01 ± 0.0042,-0.001 ± 0.0014,-0.0005 ± 0.0021,-0.0015 ± 0.0021,-0.02 ± 0.0085,-0.0105 ± 0.005,-0.0025 ± 0.025,-0.009 ± 0.0057,-0.013 ± 0.0099,-0.0145 ± 0.005,0.0055 ± 0.0035,-0.008 ± 0.013,0.0185 ± 0.023,0.005 ± 0.023,0.0125 ± 0.019,-0.0115 ± 0.015
